Measured data: PubChem BioAssay AID1159579 (Peter MacCallum Cancer Centre, 2015)

Screen: 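Retest candidate lymphatic endothelial migration regulators using several independent siRNAs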 (follow-up of hits)
Cell system: human dermal lymphatic endothelial cells
Reagent: single siRNA against human genes, 25 nM
Read-out: 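High content images of wound closure area and cell nuclei counts, each the average of two wells, expressed against mock transfection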
Scale: migration relative to mock: higher = more migration into the scratch; mean nuclei count: higher = more cells remaining
Active means: 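a ratio of at most 0.6 or at least 1.3 marks altered migration and an active call; a mean nuclei count under 3300 forces an inactive call regardless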
Calls: active = migration changed (impaired or accelerated); inactive = no migration change, or too few cells
The deposit covers about 2,000 reagents; below is a part drawn at random. In the full data, 549 (27%) are marked active. 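Some migration ratios are negative; siRNAs with too few cells are inactive whatever their migration ratio.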 A number with no mark means an inactive call. The numbers tell different reagents against one gene apart. The record does not give: the time to read-out.

Against CALCOCO1 (GeneID 57658) #1 the deposit lists migration relative to mock 0.94; migration and cell number class no change in migration or cell number; mean nuclei count 4680.
For CALCOCO1 (GeneID 57658) #2, the entry reads migration relative to mock 0.7; migration and cell number class no change in migration or cell number; mean nuclei count 6282.
Against CALCOCO1 (GeneID 57658) #3 the deposit lists migration relative to mock 0.68; migration and cell number class too few cells; migration not scored; mean nuclei count 3213.
CALCOCO1 (GeneID 57658) #4 gave migration relative to mock 0.36 (active); migration and cell number class migration reduced; mean nuclei count 4210.
For RAB36 (GeneID 9609) #1 the deposit lists migration relative to mock 0.05 (active); migration and cell number class migration reduced; mean nuclei count 4267.
With knock-down of RAB36 (GeneID 9609) #2 the results were migration relative to mock 0.9; migration and cell number class no change in migration or cell number; mean nuclei count 6340.
After knock-down of RAB36 (GeneID 9609) #3, the record shows migration relative to mock 0.69; migration and cell number class no change in migration or cell number; mean nuclei count 6186.
Against RAB36 (GeneID 9609) #4, the entry reads migration relative to mock 0.91; migration and cell number class no change in migration or cell number; mean nuclei count 5758.
After knock-down of MARK1 (GeneID 4139) #1, the screen gave migration relative to mock 1; migration and cell number class no change in migration or cell number; mean nuclei count 4962.
After knock-down of MARK1 (GeneID 4139) #2 the results were migration relative to mock 0.52 (active); migration and cell number class migration reduced; mean nuclei count 7204.
With knock-down of MARK1 (GeneID 4139) #3, the record shows migration relative to mock 0.94; migration and cell number class no change in migration or cell number; mean nuclei count 6980.
Depletion of MARK1 (GeneID 4139) #4 came out at: migration relative to mock 0.74; migration and cell number class no change in migration or cell number; mean nuclei count 7097.
Silencing of EFNA3 (GeneID 1944) #1 resulted in: migration relative to mock 0.51 (active); migration and cell number class migration reduced; mean nuclei count 5103.
EFNA3 (GeneID 1944) #2 scored migration relative to mock 1.08; migration and cell number class no change in migration or cell number; mean nuclei count 6604.
EFNA3 (GeneID 1944) #3 showed migration relative to mock 0.92; migration and cell number class no change in migration or cell number; mean nuclei count 6084.
Depletion of EFNA3 (GeneID 1944) #4 gave: migration relative to mock 0.46 (active); migration and cell number class migration reduced; mean nuclei count 5110.

In a second layout: results already given.
gene	reagent no.	migration relative to mock	migration and cell number class	mean nuclei count
MARK1 (GeneID 4139)	3	0.94	no change in migration or cell number	6980
MARK1 (GeneID 4139)	4	0.74	no change in migration or cell number	7097
